Patent US7888090B2, “Mutants of O6-alkylguanine-DNA alkyltransferase” (Ecole Polytechnique Federale de Lausanne, priority 2004, dated 2011)

How the values were obtained:
[1] = Periplasmic expression / stability under oxidizing conditions; design: species or system E. coli; conditions: for yield of active AGT mutant from expression in the periplasm: E. coli, compared to PGEG-hAGT
Experimental: The activities towards AGT substrates are measured after purification without addition of reducing agents such as dithiothreitol or beta-mercaptoethanol. Alternatively, the activities of mutant AGT and wild type human are compared after their export into cellular compartments with oxidising redox potential (e.g. the periplasm of E. coli due to their fusion to appropriate signal sequences. Activity towards AGT substrates under reducing and oxidising conditions is compared by performing the reactions in the presence or absence of reducing agents such as dithiothreitol or beta-mercaptoethanol.
The mutant AGT gene of Example 1 is amplified and cloned as described in Example 1 with the oligonucleotides SEQ ID NO:3, SEQ ID NO:10 and SEQ ID NO:4, SEQ ID NO:9 causing the further mutation Cys62Ala in the gene upon their incorporation by PCR. Protein expression, purification and determination of yield is carried out as described in Example 1. The mutant gene is PCR amplified with the primers SEQ ID NO:11, SEQ ID NO:12 that contain SfiI restriction sites to subclone the gene in fusion to the g3 protein of filamentous phage in the vector pAK100 (Krebber et al., J Immunol Methods 201:35-55, 1997). […] The supernatant is directly subjected to quantification of protein yield via SDS-PAGE and activity assays as described in Example 1.
Stability under oxidizing conditions: The mutant gene is PCR amplified with the primers SEQ ID NO:11 and SEQ ID NO:28 to subclone the gene into pAK100, as described in Example 2. […] To compare the reactivity of […] (Juillerat et al., Chem Biol 10:313-317, 2003) and the mutant, samples are incubated with 1 µM BG-Bt for 50 min, quenched with SDS-Laemmli buffer and analyzed by western blotting using neutravidin peroxidase conjugate (Pierce) or a monoclonal mouse anti-FLAG IgG antibody (M2, Sigma) and a secondary anti-mouse-IgG::HRP conjugate, and Renaissance reagent plus (NEN). […] The anti-FLAG IgG antibody is used to estimate the total amount of soluble AGT protein, whereas neutravidin quantifies the reactive portion of it. […]

[2] = Expression yield of soluble GST-AGT fusion protein; design: species or system E. coli; conditions: for yield of soluble GST fusion protein: E. coli
Experimental: Expression yield is measured in E. coli or in any other of the standard production cells for genetically modified proteins, e.g. yeast, or preferably insect cells, CHO cells or HeLa cells. For quantifying expression yield, AGT fusion proteins may be chosen such that the fusion partner allows easy purification and quantification. For example, expression yield in E. coli is determined by measuring and comparing the yield of soluble and insoluble GST-wild type AGT fusion protein and GST-mutant AGT fusion protein from parallel E. coli expression cultures. Samples of the soluble fractions and insoluble fractions (i.e. the inclusion bodies) after cell lysis are subjected to SDS-PAGE, and the band staining intensities of the corresponding AGT fusion proteins are compared. Soluble protein is quantified after purification of the fusion protein from cell extracts by affinity chromatography (e.g. for GST-AGT fusion proteins by glutathione sepharose) by subjecting the purified fractions to a protein concentration assay (Bradford, Anal Biochem 72:248-54, 1976). The expression yield of similar proteins in the soluble fraction (difference in point mutations) can be used as a measure for protein stability in the unpurified as well as the purified state (Ohage et al., J Mol Biol 291:1119-1128, 1999; Wirtz et al., Protein Sci 8: 2245-50, 1999). Therefore, this is taken as a measure of folding stability and aggregation tendency.
Protein expression from this vector is carried out in E. coli strain BL21. An exponentially growing culture is induced with 0.5 mM IPTG, and the expression is carried out for 3.5 h at 24° C.
Purification: The harvested cells are resuspended in a buffer containing 50 mM phosphate, 0.5 M NaCl, 1 mM DTT, supplemented with 1 mM PMSF and 2 μg/ml aprotinin, and disrupted by lysozyme and sonification. The cell debris are separated by centrifugation at 40000×g. The extract is applied to pre-equilibrated glutathione sepharose (Amersham) which is then washed with 20 bed volumes (50 mM phosphate, 0.5 M NaCl, 1 mM DTT). The mutated GST-AGT fusion protein is eluted with 10 mM reduced glutathione in 50 mM Tris·HCl pH 7.9. The purified protein is dialyzed against 50 mM HEPES pH 7.2; 1 mM DTT; 30% glycerol and then stored at −80° C.
Determination of protein yield: Purity and relative amounts of the GST-AGT fusion proteins are compared by running samples on SDS-PAGE. UV spectra of the pure fractions are recorded using a Perkin Elmer Lambda 10. For protein samples containing no significant amount of DNA, the extinction at 280 nm as a measure of protein content is compared to that of wild type hAGT or PGEG-hAGT that were purified under the same conditions.

[3] = tested on: CHO-cells deficient in endogenous AGT; experiment: In vivo localization by confocal microscopy; format: cell-based; conditions: for localization of fluorescently labeled AGT: CHO cells

Row | Molecule | localization of fluorescently labeled AGT [3] | yield of soluble GST fusion protein ([2]; compared to PGEG-hAGT) | other results
1 | AGTM: AGT mutant Cys62Ala, Gln115Ser, Gln116His, Lys125Ala, Ala127Thr, Arg128Ala, Gly131Lys, Gly132Thr, Met134Leu, Arg135Ser, Cys150Asn, Ser151Ile, Ser152Asn, Asn157Gly, Ser159Glu, truncated after … (protein, UniProt P16455 1-207, looked up, variant C62A Q115S Q116H K125A A127T R128A G131K G132T M134L R135S C150N S151I S152N N157G S159E del183-207, His tag) Methylated-DNA--protein-cystei …: MDKDCEMKRTTLDSPLGKLELSGCEQGLHEIKLLGKGTSAADAVEVPAPAAVLGGPEPLMQATAWLNAYFHQPEAIEEFPVPALHHPVFQQESFTRQVLWKLLKVVKFGEVISYSHLAALAGNPAATAAVKTALSGNPVPILIPCHRVVNINGAVGGYEGGLAVKEWLLAHEGHRLGKPGLG | distribution throughout the cytoplasm | – | active protein from periplasmic expression ([1]; compared to PGEA-hAGT, normalized to protein yield): at least tenfold more; expression rate ([2]; compared to the mutants of Examples 1 through 5): further increased at least twofold
2 | Cys62Ala, Lys125Ala, Ala127Thr, Arg128Ala, Asn157Gly, Ser159Glu, truncated after Gly182: particularly preferred hAGT mutant with the listed mutations (protein, UniProt P16455 1-207, looked up, variant C62A K125A A127T R128A N157G S159E del183-207) Methylated-DNA--protein-cystei …: MDKDCEMKRTTLDSPLGKLELSGCEQGLHEIKLLGKGTSAADAVEVPAPAAVLGGPEPLMQATAWLNAYFHQPEAIEEFPVPALHHPVFQQESFTRQVLWKLLKVVKFGEVISYQQLAALAGNPAATAAVGGAMRGNPVPILIPCHRVVCSSGAVGGYEGGLAVKEWLLAHEGHRLGKPGLG | distribution throughout the cytoplasm | – | –
3 | Cys62Ala, Gln115Ser, Gln116His, Lys125Ala, Ala127Thr, Arg128Ala, Cys150Asn, Ser151Ile, Ser152Asn, Asn157Gly, Ser159Glu, truncated after Gly182: particularly preferred hAGT mutant with the listed … (protein, UniProt P16455 1-207, looked up, variant C62A Q115S Q116H K125A A127T R128A C150N S151I S152N N157G S159E del183-207) Methylated-DNA--protein-cystei …: MDKDCEMKRTTLDSPLGKLELSGCEQGLHEIKLLGKGTSAADAVEVPAPAAVLGGPEPLMQATAWLNAYFHQPEAIEEFPVPALHHPVFQQESFTRQVLWKLLKVVKFGEVISYSHLAALAGNPAATAAVGGAMRGNPVPILIPCHRVVNINGAVGGYEGGLAVKEWLLAHEGHRLGKPGLG | distribution throughout the cytoplasm | – | –
4 | truncated PGEG-hAGT: PGEG-hAGT (Asn157Gly, Ser159Glu) truncated after codon 182 (protein, UniProt P16455 1-207, looked up, variant N157G S159E del183-207) Methylated-DNA--protein-cystei …: MDKDCEMKRTTLDSPLGKLELSGCEQGLHEIKLLGKGTSAADAVEVPAPAAVLGGPEPLMQCTAWLNAYFHQPEAIEEFPVPALHHPVFQQESFTRQVLWKLLKVVKFGEVISYQQLAALAGNPKAARAVGGAMRGNPVPILIPCHRVVCSSGAVGGYEGGLAVKEWLLAHEGHRLGKPGLG | – | at least two times higher | –
5 | Gly131Lys, Gly132Thr, Met134Leu, Arg135Ser, Asn157Gly, Ser159Glu: hAGT mutant with the listed mutations, selected by phage display (protein, UniProt P16455 1-207, looked up, variant G131K G132T M134L R135S N157G S159E) Methylated-DNA--protein-cystei …: MDKDCEMKRTTLDSPLGKLELSGCEQGLHEIKLLGKGTSAADAVEVPAPAAVLGGPEPLMQCTAWLNAYFHQPEAIEEFPVPALHHPVFQQESFTRQVLWKLLKVVKFGEVISYQQLAALAGNPKAARAVKTALSGNPVPILIPCHRVVCSSGAVGGYEGGLAVKEWLLAHEGHRLGKPGLGGSSGLAGAWLKGAGATSGSPPAGRN | – | at least two times higher | –
6 | Wild type hAGT: wild type human O^6-alkylguanine-DNA alkyltransferase (SEQ ID NO:1); GST-hAGT is its GST fusion (protein, listed as Homo sapiens) MDKDCEMKRTTLDSPLGKLELSGCEQGLHEIKLLGKGTSAADAVEVPAPAAVLGGPEPLMQCTAWLNAYFHQPEAIEEFPVPALHHPVFQQESFTRQVLWKLLKVVKFGEVISYQQLAALAGNPKAARAVGGAMRGNPVPILIPCHRVVCSSGAVGNYSGGLAVKEWLLAHEGHRLGKPGLGGSSGLAGAWLKGAGATSGSPPAGRN | – | – | subcellular localisation ([3]; AGT-deficient HeLa cells or CHO cells): preferential localisation in the nucleus, and only marginal localisation in the cytoplasm
7 | Lys125Ala, Ala127Thr, Arg128Ala, Asn157Gly, Ser159Glu: hAGT mutant with the listed mutations, expressed as GST fusion (protein, UniProt P16455 1-207, looked up, variant K125A A127T R128A N157G S159E, GST fusion) Methylated-DNA--protein-cystei …: MDKDCEMKRTTLDSPLGKLELSGCEQGLHEIKLLGKGTSAADAVEVPAPAAVLGGPEPLMQCTAWLNAYFHQPEAIEEFPVPALHHPVFQQESFTRQVLWKLLKVVKFGEVISYQQLAALAGNPAATAAVGGAMRGNPVPILIPCHRVVCSSGAVGGYEGGLAVKEWLLAHEGHRLGKPGLGGSSGLAGAWLKGAGATSGSPPAGRN | distributed throughout the cytoplasm, no preferential nuclear localization can be detected | at least three times more soluble protein | –
8 | Gln115Ser, Gln116His, Cys150Asn, Ser151Ile, Ser152Asn, Asn157Gly, Ser159Glu: hAGT mutant with the listed mutations, selected by phage display (protein, UniProt P16455 1-207, looked up, variant Q115S Q116H C150N S151I S152N N157G S159E) Methylated-DNA--protein-cystei …: MDKDCEMKRTTLDSPLGKLELSGCEQGLHEIKLLGKGTSAADAVEVPAPAAVLGGPEPLMQCTAWLNAYFHQPEAIEEFPVPALHHPVFQQESFTRQVLWKLLKVVKFGEVISYSHLAALAGNPKAARAVGGAMRGNPVPILIPCHRVVNINGAVGGYEGGLAVKEWLLAHEGHRLGKPGLGGSSGLAGAWLKGAGATSGSPPAGRN | – | at least two times higher | yield of active AGT mutant from expression in the periplasm [1]: at least two times higher
9 | Cys62Ala, Lys125Ala, Ala127Thr, Arg128Ala, Asn157Gly, Ser159Glu: hAGT mutant with the listed mutations (protein, UniProt P16455 1-207, looked up, variant C62A K125A A127T R128A N157G S159E) Methylated-DNA--protein-cystei …: MDKDCEMKRTTLDSPLGKLELSGCEQGLHEIKLLGKGTSAADAVEVPAPAAVLGGPEPLMQATAWLNAYFHQPEAIEEFPVPALHHPVFQQESFTRQVLWKLLKVVKFGEVISYQQLAALAGNPAATAAVGGAMRGNPVPILIPCHRVVCSSGAVGGYEGGLAVKEWLLAHEGHRLGKPGLGGSSGLAGAWLKGAGATSGSPPAGRN | – | – | yield of active AGT mutant from expression in the periplasm [1]: at least three times higher; yield of soluble GST fusion protein ([2]; compared to mutant of Example 1): at least two times higher

Some entries repeat one wording, which the source may state once for all of them.
